From patent publication US20230101273A1, “MESOIONIC INSECTICIDES” (FMC Corporation, priority 2020, published 2023)
Some entries share one result that the patent states for a list of compounds.

What was measured:
Assay type in all cases: in vivo
[1] = tested on: diamondback moth (Plutella xylostella (L.)); assay: Test A: control of diamondback moth on mustard plant, spray; conditions: 6 days, neonate larvae on mustard plant
[2] = tested on: fall armyworm (Spodoptera frugiperda (J. E. Smith)); assay: Test B: control of fall armyworm on corn plant, spray; conditions: 6 days, 1-day-old larvae on corn plant
[3] = tested on: cotton melon aphid (Aphis gossypii (Glover)); assay: Test F: control of cotton melon aphid through contact and/or systemic means; conditions: sprayed at 50 ppm; 6 days; okra plant
Protocol: Test compounds were formulated using a solution containing 10% acetone, 90% water and 300 ppm Activator 900 non-ionic surfactant (Loveland Products, Loveland, Colo., USA). The formulated compounds were applied in 1 mL of liquid through an atomizer nozzle positioned 1.27 cm (0.5 inches) above the top of each test unit. Test compounds were sprayed at the rates indicated, and each test was replicated three times.
[…] This was pre-infested with 30-40 insects on a piece of leaf according to the cut-leaf method, and the soil of the test unit was covered with a layer of sand.
Test compounds were formulated and sprayed at 50 ppm. After spraying, the test units were maintained in a growth chamber for 6 days at 19° C. and 70% relative humidity. Each test unit was then visually assessed for insect mortality.

| SMILES | control efficacy: feeding damage (40% or less feeding damage and/or 100% mortality) ([1]; sprayed at 2 ppm) [%] | control efficacy: feeding damage (40% or less feeding damage and/or 100% mortality) ([1]; sprayed at 10 ppm) [%] | control efficacy: feeding damage (40% or less feeding damage and/or 100% mortality) ([2]; sprayed at 2 ppm) [%] | control efficacy: feeding damage (40% or less feeding damage and/or 100% mortality) ([2]; sprayed at 10 ppm) [%] | control efficacy: feeding damage (40% or less feeding damage and/or 100% mortality) ([1]; sprayed at 0.4 ppm) [%] | control efficacy: feeding damage (40% or less feeding damage and/or 100% mortality) ([2]; sprayed at 0.4 ppm) [%] | mortality [3] |
| --- | --- | --- | --- | --- | --- | --- | --- |
| Cc1cccn2c(=O)c(-c3cc(Cl)cc(C#CC4CCCCC4)c3)c([O-])[n+](Cc3cnc(Cl)s3)c12 [Compound 31] | ≤ 40 | ≤ 40 | ≤ 40 | ≤ 40 | – | – | – |
| Cc1cccn2c(=O)c(-c3cc(C#CCC4CCCCC4)cc(C(F)(F)F)c3)c([O-])[n+](Cc3cnc(Cl)s3)c12 [Compound 27] | ≤ 40 | ≤ 40 | – | ≤ 40 | – | – | – |
| COCCOc1cc(C#CC2CC2)cc(-c2c([O-])[n+](Cc3cnc(Cl)s3)c3c(C)cccn3c2=O)c1 [Compound 69] | ≤ 40 | ≤ 40 | ≤ 40 | ≤ 40 | ≤ 40 | ≤ 40 | – |
| Cc1cccn2c(=O)c(-c3cc(C#CC4CCCCC4)cc(C(F)(F)F)c3)c([O-])[n+](Cc3cnc(Cl)s3)c12 [Compound 25] | ≤ 40 | ≤ 40 | – | – | ≤ 40 | – | – |
| Cc1cccn2c(=O)c(-c3cccc(C#CCC4CCCC4)c3)c([O-])[n+](Cc3cnc(Cl)s3)c12 [Compound 41] | ≤ 40 | ≤ 40 | – | ≤ 40 | – | – | – |
| Cc1cccn2c(=O)c(-c3cc(C#CC4CCCC4)cc(OCC(C)C)c3)c([O-])[n+](Cc3cnc(Cl)s3)c12 [Compound 74] | ≤ 40 | ≤ 40 | ≤ 40 | ≤ 40 | ≤ 40 | – | at least 80% |
| Cc1cccn2c(=O)c(-c3cc(C#CC4CCCC4)cc(C(C)C)c3)c([O-])[n+](Cc3cnc(Cl)s3)c12 [Compound 6] | – | – | – | ≤ 40 | – | – | – |
| CCC#Cc1cc(-c2c([O-])[n+](Cc3cnc(Cl)s3)c3c(C)cccn3c2=O)ccc1OC [Compound 78] | ≤ 40 | ≤ 40 | ≤ 40 | ≤ 40 | ≤ 40 | – | at least 80% |
| Cc1cccn2c(=O)c(-c3cc(C#CC4CCCC4)cc(OC4CC4)c3)c([O-])[n+](Cc3cnc(Cl)s3)c12 [Compound 67] | ≤ 40 | ≤ 40 | ≤ 40 | ≤ 40 | ≤ 40 | – | – |
| Cc1cccn2c(=O)c(-c3cccc(C#Cc4cccc(F)c4)c3)c([O-])[n+](Cc3cnc(Cl)s3)c12 [Compound 40] | ≤ 40 | ≤ 40 | ≤ 40 | ≤ 40 | ≤ 40 | ≤ 40 | – |
| COCCOc1cc(C#CC2CCCC2)cc(-c2c([O-])[n+](Cc3cnc(Cl)s3)c3c(C)cccn3c2=O)c1 [Compound 71] | ≤ 40 | ≤ 40 | ≤ 40 | ≤ 40 | ≤ 40 | ≤ 40 | – |
| Cc1cccn2c(=O)c(-c3cccc(C#Cc4ccccc4F)c3)c([O-])[n+](Cc3cnc(Cl)s3)c12 [Compound 45] | ≤ 40 | ≤ 40 | ≤ 40 | ≤ 40 | ≤ 40 | ≤ 40 | – |
| Cc1cccn2c(=O)c(-c3cc(F)cc(C#CC4CCCCC4)c3)c([O-])[n+](Cc3cnc(Cl)s3)c12 [Compound 20] | ≤ 40 | ≤ 40 | ≤ 40 | ≤ 40 | ≤ 40 | – | – |
| Cc1cccn2c(=O)c(-c3cc(C#CC4CCCC4)cc(C(F)(F)F)c3)c([O-])[n+](Cc3cnc(Cl)s3)c12 [Compound 24] | ≤ 40 | ≤ 40 | ≤ 40 | ≤ 40 | ≤ 40 | ≤ 40 | – |
| Cc1cccn2c(=O)c(-c3cc(Cl)cc(C#CCC4CCCCC4)c3)c([O-])[n+](Cc3cnc(Cl)s3)c12 [Compound 33] | – | ≤ 40 | – | ≤ 40 | – | – | – |
| Cc1cccn2c(=O)c(-c3cc(C#CC4CCCCC4)cc(C(C)C)c3)c([O-])[n+](Cc3cnc(Cl)s3)c12 [Compound 12] | ≤ 40 | ≤ 40 | – | ≤ 40 | ≤ 40 | – | – |
| Cc1cccn2c(=O)c(-c3cccc(C#Cc4cccc(Cl)c4)c3)c([O-])[n+](Cc3cnc(Cl)s3)c12 [Compound 49] | ≤ 40 | ≤ 40 | ≤ 40 | ≤ 40 | ≤ 40 | – | – |
| Cc1cccn2c(=O)c(-c3cc(F)cc(C#CC4CCCC4)c3)c([O-])[n+](Cc3cnc(Cl)s3)c12 [Compound 19] | ≤ 40 | ≤ 40 | ≤ 40 | ≤ 40 | ≤ 40 | ≤ 40 | – |
| Cc1cccn2c(=O)c(-c3cc(F)cc(C#CCC4CCCCC4)c3)c([O-])[n+](Cc3cnc(Cl)s3)c12 [Compound 22] | ≤ 40 | ≤ 40 | ≤ 40 | ≤ 40 | – | – | – |
| Cc1cc(C#CC2CCCC2)cc(-c2c([O-])[n+](Cc3cnc(Cl)s3)c3c(C)cccn3c2=O)c1 [Compound 9] | ≤ 40 | ≤ 40 | ≤ 40 | ≤ 40 | ≤ 40 | ≤ 40 | – |
| Cc1cccn2c(=O)c(-c3cc(Cl)cc(C#CC4CCCC4)c3)c([O-])[n+](Cc3cnc(Cl)s3)c12 [Compound 30] | ≤ 40 | ≤ 40 | ≤ 40 | ≤ 40 | ≤ 40 | ≤ 40 | – |
